According to the supplement of paper PMC6411743:
± gives the standard deviation of the averaged measurements. This is one part of the list.

The chains behind the UniProt entries cited, without tags or fusion partners. Where a name states a change or a piece, a line headed by the entry shows the natural chain unless it says otherwise.
UniProt Q86VS8: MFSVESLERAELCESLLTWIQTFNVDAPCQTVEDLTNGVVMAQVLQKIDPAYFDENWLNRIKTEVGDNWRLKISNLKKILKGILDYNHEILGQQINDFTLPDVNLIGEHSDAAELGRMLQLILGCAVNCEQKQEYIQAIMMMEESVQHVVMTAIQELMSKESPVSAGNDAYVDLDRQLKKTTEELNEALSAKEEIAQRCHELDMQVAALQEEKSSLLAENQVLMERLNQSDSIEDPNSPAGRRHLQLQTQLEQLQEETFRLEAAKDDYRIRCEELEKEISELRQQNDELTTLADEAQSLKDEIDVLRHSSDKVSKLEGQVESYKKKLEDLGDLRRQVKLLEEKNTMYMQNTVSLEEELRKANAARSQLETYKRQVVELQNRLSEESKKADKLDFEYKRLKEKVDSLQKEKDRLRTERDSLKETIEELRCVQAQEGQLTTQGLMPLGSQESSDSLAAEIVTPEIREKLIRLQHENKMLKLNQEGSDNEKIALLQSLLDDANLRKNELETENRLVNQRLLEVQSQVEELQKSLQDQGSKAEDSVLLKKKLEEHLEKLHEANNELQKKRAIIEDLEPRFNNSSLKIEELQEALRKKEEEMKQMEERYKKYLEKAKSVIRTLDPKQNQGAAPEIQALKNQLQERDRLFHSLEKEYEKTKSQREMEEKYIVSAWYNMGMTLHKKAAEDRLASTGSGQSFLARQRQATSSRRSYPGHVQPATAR
UniProt Q6GPH4: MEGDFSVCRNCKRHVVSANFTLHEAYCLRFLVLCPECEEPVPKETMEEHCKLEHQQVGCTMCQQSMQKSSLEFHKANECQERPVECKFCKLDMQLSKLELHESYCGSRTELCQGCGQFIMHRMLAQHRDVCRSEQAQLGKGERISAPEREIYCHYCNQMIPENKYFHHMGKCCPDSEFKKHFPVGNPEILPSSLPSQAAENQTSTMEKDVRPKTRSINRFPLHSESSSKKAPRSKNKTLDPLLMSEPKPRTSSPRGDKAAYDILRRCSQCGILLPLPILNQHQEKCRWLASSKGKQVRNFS
UniProt Q6P1R4: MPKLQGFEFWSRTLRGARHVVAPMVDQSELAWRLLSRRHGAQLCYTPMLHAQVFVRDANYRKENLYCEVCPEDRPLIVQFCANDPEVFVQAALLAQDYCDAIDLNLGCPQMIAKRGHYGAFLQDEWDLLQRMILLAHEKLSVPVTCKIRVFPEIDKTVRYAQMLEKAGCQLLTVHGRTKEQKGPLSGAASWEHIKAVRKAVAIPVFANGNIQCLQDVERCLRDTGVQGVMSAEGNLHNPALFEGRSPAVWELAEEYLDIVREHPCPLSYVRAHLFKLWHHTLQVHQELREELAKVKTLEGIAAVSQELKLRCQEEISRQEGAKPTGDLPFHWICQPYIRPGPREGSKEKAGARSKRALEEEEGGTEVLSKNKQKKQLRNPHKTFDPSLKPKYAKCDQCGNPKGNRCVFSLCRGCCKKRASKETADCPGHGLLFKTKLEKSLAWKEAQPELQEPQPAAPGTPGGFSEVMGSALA
UniProt Q6IN84: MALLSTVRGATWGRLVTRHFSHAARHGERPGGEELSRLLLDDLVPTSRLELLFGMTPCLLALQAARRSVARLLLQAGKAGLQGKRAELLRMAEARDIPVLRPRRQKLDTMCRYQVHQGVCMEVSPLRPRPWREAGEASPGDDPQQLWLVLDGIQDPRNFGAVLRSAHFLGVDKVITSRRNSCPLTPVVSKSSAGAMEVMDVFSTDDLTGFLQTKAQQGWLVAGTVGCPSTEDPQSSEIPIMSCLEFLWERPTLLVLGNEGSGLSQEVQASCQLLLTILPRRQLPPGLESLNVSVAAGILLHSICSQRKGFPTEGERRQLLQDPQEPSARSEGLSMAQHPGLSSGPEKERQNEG
UniProt Q6PI48: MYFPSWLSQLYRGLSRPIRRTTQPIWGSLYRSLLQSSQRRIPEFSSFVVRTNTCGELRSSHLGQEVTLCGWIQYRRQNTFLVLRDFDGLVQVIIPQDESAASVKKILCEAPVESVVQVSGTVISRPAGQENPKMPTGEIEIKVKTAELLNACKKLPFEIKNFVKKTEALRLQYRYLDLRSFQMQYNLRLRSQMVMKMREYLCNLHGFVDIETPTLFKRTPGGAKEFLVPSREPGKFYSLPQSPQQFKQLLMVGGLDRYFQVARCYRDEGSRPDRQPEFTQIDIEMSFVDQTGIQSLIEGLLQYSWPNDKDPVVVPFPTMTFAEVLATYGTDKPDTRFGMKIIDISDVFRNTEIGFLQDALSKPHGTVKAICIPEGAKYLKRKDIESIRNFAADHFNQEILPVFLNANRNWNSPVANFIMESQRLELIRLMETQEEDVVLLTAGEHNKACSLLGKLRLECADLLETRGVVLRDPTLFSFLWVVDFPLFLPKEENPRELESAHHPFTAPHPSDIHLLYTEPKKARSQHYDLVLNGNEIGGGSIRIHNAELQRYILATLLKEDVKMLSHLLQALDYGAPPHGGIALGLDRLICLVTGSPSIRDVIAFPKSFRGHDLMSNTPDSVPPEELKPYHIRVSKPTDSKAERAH

Compound: Nc1nc2c(ncn2[C@@H]2O[C@H](COP(=O)(O)OP(=O)(O)OP(=O)(O)O)[C@@H](O)[C@H]2O)c(=O)[nH]1 [guanosine triphosphate]
Test: NP40-soluble protein abundance relative to vehicle (solubility fold change) (ratio); higher = more soluble protein in presence of GTP
Experimental: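 Solubility proteome profiling in Jurkat crude lysate. Lysate was treated with Mg-GTP (0.1-10 mM) for 10 min at room temperature and 3 min at 37 °C, then solubilised with 0.8% NP40 and benzonase, followed by ultracentrifugation. Proteins were quantified by TMT10 LC-MS/MS; the value is the NP40-soluble abundance relative to the NP40-processed vehicle, from 3 independent experiments.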

Row | Target | NP40-soluble protein abundance (concentration: 0.1mM) | NP40-soluble protein abundance (concentration: 0.5mM) | NP40-soluble protein abundance (concentration: 1mM) | NP40-soluble protein abundance (concentration: 2mM) | NP40-soluble protein abundance (concentration: 4mM) | NP40-soluble protein abundance (concentration: 6mM) | NP40-soluble protein abundance (concentration: 8mM) | NP40-soluble protein abundance (concentration: 10mM)
1 | HOOK3 (UniProt Q86VS8) | 0.896 ± 0.025 | 0.854 ± 0.079 | 0.968 ± 0.017 | 0.948 ± 0.084 | 0.959 ± 0.053 | 0.971 ± 0.064 | 0.919 ± 0.099 | 1.04 ± 0.027
2 | UniProt Q6GPH4 and related entries | 1.05 ± 0.033 | 1.01 ± 0.032 | 0.9713 ± 0.0081 | 0.994 ± 0.028 | 0.934 ± 0.066 | 0.919 ± 0.027 | 1.02 ± 0.039 | 0.927 ± 0.089
3 | DUS1L (UniProt Q6P1R4) | 1.01 ± 0.065 | 1.03 ± 0.045 | 1.01 ± 0.03 | 0.963 ± 0.027 | 0.961 ± 0.074 | 0.973 ± 0.05 | 0.989 ± 0.048 | 0.949 ± 0.043
4 | MRM1 (UniProt Q6IN84) | 1.15 ± 0.1 | 1.17 ± 0.11 | 1.3 ± 0.2 | 1.396 ± 0.0059 | 1.44 ± 0.052 | 1.59 ± 0.059 | 1.59 ± 0.26 | 1.68 ± 0.12
5 | DARS2 (UniProt Q6PI48) | 1.02 ± 0.046 | 1.05 ± 0.053 | 0.894 ± 0.015 | 0.925 ± 0.077 | 0.911 ± 0.042 | 0.904 ± 0.036 | 0.879 ± 0.031 | 0.864 ± 0.064
